The full ranking holds about 33,000 sequences; the median of “E-score (-0.5 to 0.5)” is about -0.0014, and the highest 2% start at about 0.25. The list shows a part of the results.
These sequences were tested against T1, Cad1 (UniProt P24813) (assay: PBM E-score (8-mer binding enrichment) (E-score (-0.5 to 0.5)); higher = stronger / more preferred TF binding). Conditions: protein concentration: 100 nM; construct: GST-full length.
T1 sequence: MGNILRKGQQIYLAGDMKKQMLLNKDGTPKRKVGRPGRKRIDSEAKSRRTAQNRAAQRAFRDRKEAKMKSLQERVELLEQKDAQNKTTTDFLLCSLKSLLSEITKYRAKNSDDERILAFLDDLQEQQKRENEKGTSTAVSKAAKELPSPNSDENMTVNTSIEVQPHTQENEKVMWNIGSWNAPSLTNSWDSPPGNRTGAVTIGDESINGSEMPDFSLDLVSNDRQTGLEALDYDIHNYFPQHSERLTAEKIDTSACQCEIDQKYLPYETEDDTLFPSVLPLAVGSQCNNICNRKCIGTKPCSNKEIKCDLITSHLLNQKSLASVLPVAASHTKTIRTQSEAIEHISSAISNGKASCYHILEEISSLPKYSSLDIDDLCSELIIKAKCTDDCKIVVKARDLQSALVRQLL
Summary of the method: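 Using PURExpress in vitro transcription/translation, GST-tagged yeast transcription factors were made in full-length or DNA-binding-domain form. These were applied at about 100-200 nM to double-stranded universal all-10-mer Agilent arrays, and bound protein was detected with fluorescent anti-GST. Scans were normalised with masliner before the Universal PBM Analysis Suite assigned E-scores to ungapped eight-base words pooled with their reverse complements.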

Row | Sequence | PBM E-score
1 | CGCCGCCC | -0.0639
2 | CTTCAGTA | 0.0842
3 | CAGGCAAG | -0.0992
4 | ACAGTCGC | -0.208
5 | AGCCCATC | -0.203
6 | ACGACACT | 0.0214
7 | CCACTCTC | -0.0497
8 | CCGACCAA | 0.0488
9 | GGGCAGCA | -0.0781
10 | AGGCTCGA | 0.081
11 | CCACGGCG | -0.00429
12 | TGGCCCAA | -0.0497
13 | GCAAGACA | -0.0299
14 | CTGTCGAC | -0.0383
15 | GTTAATAA | 0.249
16 | ATTCTAGA | 0.0465
17 | ACGTCGTA | -0.158
18 | ACGAGTGG | -0.206
19 | AGTGATTG | -0.187
20 | CCGGTGGA | -0.115
21 | ACTAAGCG | 0.3
22 | ATCGCAGA | -0.00647
23 | AATGATAG | 0.205
24 | ATCGTTTG | 0.179

Quoted from the listing.
Entry for ATCGCAGA under PBM E-score: -0.00647
Entry for ATCGTTTG under PBM E-score: 0.179
Entry for GTTAATAA under PBM E-score: 0.249
Entry for CCACTCTC under PBM E-score: -0.0497
Entry for CCGACCAA under PBM E-score: 0.0488
Entry for ACGTCGTA under PBM E-score: -0.158

(further entries)

Row | Sequence | PBM E-score
25 | GCCAAAGC | -0.176
26 | GACTACAC | 0.00788
27 | GTGAGTGA | -0.0946
28 | ACCCTAAC | 0.0127
29 | ATCTCAGC | 0.128
30 | AAAGCCAT | 0.118
31 | CGCATTCC | -0.216
32 | AAATGGTC | 0.191
33 | TACCGACA | 0.105
34 | TACGGAAA | 0.0558
35 | CGTGCCCA | -0.0465
36 | CACGGCAA | 0.0817
37 | CACAGGGC | -0.0242
38 | AACATCAG | 0.123
39 | GGGTCTAC | -0.0723
40 | GGATAGCA | 0.0379
41 | CTTCCTAC | -0.384
42 | CTGTTAGA | -0.066
43 | GGTCAGGA | -0.0994
44 | ATAGTGTG | 0.0676
45 | GAACCAGC | 0.106
46 | GCACCTGC | 0.0118
47 | CTAACTTA | 0.0684
48 | ACCTAAAT | 0.148

Row | Sequence | PBM E-score
49 | CACGGATC | 0.0559
50 | CTGCACTA | 0.184
51 | AGGCATAA | -0.0887
52 | CAATATAG | 0.101
53 | AAGTCCGT | -0.0429
54 | GGTTTAAA | 0.053
55 | ACGTCGAA | 0.00102
56 | CAGAAAGC | -0.0553
57 | ATTGTCTG | 0.196
58 | ATGGTCGG | 0.0206
59 | AGTACCGC | -0.0174
60 | GTGCACAA | -0.0443
61 | CCGACCAC | -0.0648
62 | AGCGCAAT | 0.173
63 | CTGAATTA | 0.122
64 | CTGCTAGC | -0.0526
65 | AAATTACT | 0.314
66 | AACCAGAA | -0.103
67 | GAAAGTGA | 0.0734
68 | ACTAGGAC | 0.028
69 | AGATCTTG | -0.0479
70 | AACTCTGA | 0.0586
71 | CGATACGA | 0.0601
72 | AATAAGAT | 0.039

Row | Sequence | PBM E-score
73 | TAGCGTGA | -0.0296
74 | TGGGTACA | 0.0709
75 | ATCATTTG | 0.0608
76 | GGGTAATA | 0.112
77 | ACTTTTAT | 0.0287
78 | CATTGAAG | -0.0438
79 | TTAGCGAA | 0.0483
80 | CGGCTCGC | 0.172
81 | CCCTACTA | -0.0857
82 | GATATGTA | 0.128
83 | CAGCAAAC | 0.0826
84 | ATCTACAC | 0.0982
85 | CCCGATAG | -0.114
86 | ACTTTGTA | 0.0495
87 | CGGCCTAC | 0.103
88 | CGTTATGC | 0.103
89 | CTTACTGA | 0.208
90 | CAATTCCA | -0.0425
91 | ACAAAAAG | -0.0829
92 | CCCCTACC | -0.179
93 | CGATGCTC | -0.142
94 | TAAACGGA | 0.246

From the supplement of paper PMC3334620
